Measured values reported in paper PMC9857240.
No constants are given. Whether binding was seen depends on the method and setting. A result given as binding can be weak or reduced; the word gives no strength. For some assays here: In cells and extracts the contact can be indirect.

Key:
[1] = biological target: T1, Importin 13 (two-hybrid bait, amino acids 1-963) (mouse) (UniProt Q8K0C1); experiment: two-hybrid; screen by Hybrigenics; IPO13 amino acids 1-963 as bait, cDNA libraries from human lung, brain and testis as prey
T1 sequence: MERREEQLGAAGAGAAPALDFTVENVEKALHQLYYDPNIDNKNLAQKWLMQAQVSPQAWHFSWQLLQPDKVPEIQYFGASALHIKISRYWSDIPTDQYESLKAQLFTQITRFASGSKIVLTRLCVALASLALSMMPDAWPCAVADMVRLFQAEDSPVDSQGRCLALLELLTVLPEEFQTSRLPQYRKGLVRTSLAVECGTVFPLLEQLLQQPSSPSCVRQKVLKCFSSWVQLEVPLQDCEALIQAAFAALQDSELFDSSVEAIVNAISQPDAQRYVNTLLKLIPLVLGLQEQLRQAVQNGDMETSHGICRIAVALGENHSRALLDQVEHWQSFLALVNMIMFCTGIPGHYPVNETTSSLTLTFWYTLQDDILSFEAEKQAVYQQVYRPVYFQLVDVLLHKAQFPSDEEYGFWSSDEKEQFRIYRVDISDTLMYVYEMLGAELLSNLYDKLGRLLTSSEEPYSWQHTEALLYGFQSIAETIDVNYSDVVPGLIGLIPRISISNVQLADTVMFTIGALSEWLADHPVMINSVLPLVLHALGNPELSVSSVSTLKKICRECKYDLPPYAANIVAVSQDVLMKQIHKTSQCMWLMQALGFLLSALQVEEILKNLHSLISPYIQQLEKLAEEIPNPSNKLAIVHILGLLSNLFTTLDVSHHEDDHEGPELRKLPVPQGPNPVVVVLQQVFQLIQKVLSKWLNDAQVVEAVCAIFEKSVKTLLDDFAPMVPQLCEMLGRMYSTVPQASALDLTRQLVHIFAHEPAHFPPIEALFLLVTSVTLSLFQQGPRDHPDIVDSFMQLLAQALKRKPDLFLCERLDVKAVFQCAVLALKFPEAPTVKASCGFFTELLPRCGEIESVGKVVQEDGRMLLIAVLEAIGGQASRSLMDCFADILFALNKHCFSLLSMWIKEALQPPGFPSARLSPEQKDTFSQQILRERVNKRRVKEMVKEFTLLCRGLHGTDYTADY

[2] = biological target: GFP-nCLU; experiment: co-IP; HeLa co-expressing GFP-nCLU and DsRed2-IPO13, with or without 125 uM H2O2 for 1 h before lysis; GFP-Trap resin; Western blot

In the case of “Tripartite Motif-Containing 26 (human) (domain or fragment)”, the binding [1] is reported as “binds”.

B1: DsRed2-IPO13 (protein, UniProt Q8K0C1 1-963)
chain: T1 sequence
B1 was tested, and the binding [2] was “binds”.
